Results deposited as PubChem BioAssay AID1224830 (NIAID, 2016)
This is an unselected part of about 18,000 deposited reagents. In the full data, about 2,900 (16%) got an active call. 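Calls are made per well; low scores hint the gene aids the LPS response, high scores that it dampens it.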 Repeated entries: four replicate wells of each siRNA pool. Reagent sequences are not shown.

Assay: 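Regulators of TLR4 signalling towards TNF-alpha in macrophage-like cells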 (primary screen)
Cell system: human THP-1 monocytic leukaemia cells, TNF dual-luciferase reporter clone, PMA-differentiated to macrophage-like cells
Reagent: siRNA pool against human genes, 50 nM
Duration: LPS for 4 h, given about 3 days after siRNA transfection
Treatment: bacterial LPS (TLR4 ligand), 10 ng/ml
Measured: 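TNF firefly reporter luminescence divided by renilla, normalised to the plate median, then turned into a robust z-score for each replicate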
Reading the numbers: TNF reporter robust z-score: higher = stronger TNF reporter response to LPS
Active means: 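Each well counts as active if its z-score is over 2.8 or under -1.5; controls are left without a call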

| gene symbol | TNF reporter robust z-score | Call |
| --- | --- | --- |
| RAB3C (GeneID 115827) | -0.09 | inactive |
| RAB3C (GeneID 115827) | -0.42 | inactive |
| RAB3C (GeneID 115827) | -0.52 | inactive |
| RAB3C (GeneID 115827) | -1.01 | inactive |
| DNAJA2 (GeneID 10294) | 0.18 | inactive |
| DNAJA2 (GeneID 10294) | -0.39 | inactive |
| DNAJA2 (GeneID 10294) | -0.29 | inactive |
| DNAJA2 (GeneID 10294) | 0 | inactive |
| HCN4 (GeneID 10021) | 0.33 | inactive |
| HCN4 (GeneID 10021) | 0.39 | inactive |
| HCN4 (GeneID 10021) | -0.52 | inactive |
| HCN4 (GeneID 10021) | 2.78 | inactive |
| SLC4A10 (GeneID 57282) | 0.54 | inactive |
| SLC4A10 (GeneID 57282) | 1.16 | inactive |
| SLC4A10 (GeneID 57282) | 1.54 | inactive |
| SLC4A10 (GeneID 57282) | 1.92 | inactive |
| PKN1 (GeneID 5585) | -1.25 | inactive |
| PKN1 (GeneID 5585) | -0.77 | inactive |
| PKN1 (GeneID 5585) | -0.54 | inactive |
| PKN1 (GeneID 5585) | 0.2 | inactive |
| VN1R10P (GeneID 387316) | 1.07 | inactive |
| VN1R10P (GeneID 387316) | 1 | inactive |
| VN1R10P (GeneID 387316) | 0.04 | inactive |
| VN1R10P (GeneID 387316) | 0.64 | inactive |
| ARHGEF16 (GeneID 27237) | 0.65 | inactive |
| ARHGEF16 (GeneID 27237) | 1.86 | inactive |
| ARHGEF16 (GeneID 27237) | 1.07 | inactive |
| ARHGEF16 (GeneID 27237) | 1.85 | inactive |
| FAM120C (GeneID 54954) | -0.19 | inactive |
| FAM120C (GeneID 54954) | 1.66 | inactive |
| FAM120C (GeneID 54954) | 1.77 | inactive |
| FAM120C (GeneID 54954) | 1.9 | inactive |
| NADK (GeneID 65220) | -0.33 | inactive |
| NADK (GeneID 65220) | 1.16 | inactive |
| NADK (GeneID 65220) | -0.76 | inactive |
| NADK (GeneID 65220) | -0.02 | inactive |
| ALKBH3 (GeneID 221120) | 1.38 | inactive |
| ALKBH3 (GeneID 221120) | 1 | inactive |
| ALKBH3 (GeneID 221120) | 1.51 | inactive |
| ALKBH3 (GeneID 221120) | -0.16 | inactive |
| RAB42 (GeneID 115273) | -1.08 | inactive |
| RAB42 (GeneID 115273) | 1.69 | inactive |
| RAB42 (GeneID 115273) | 1.3 | inactive |
| RAB42 (GeneID 115273) | 0.89 | inactive |
| COMMD3 (GeneID 23412) | -1.35 | inactive |
| COMMD3 (GeneID 23412) | -0.93 | inactive |
| COMMD3 (GeneID 23412) | -0.71 | inactive |
| COMMD3 (GeneID 23412) | -0.86 | inactive |
| PRAMEF10 (GeneID 343071) | 0.29 | inactive |
| PRAMEF10 (GeneID 343071) | -0.64 | inactive |
| PRAMEF10 (GeneID 343071) | 0.47 | inactive |
| PRAMEF10 (GeneID 343071) | 0.82 | inactive |
| ZNF674 (GeneID 641339) | -0.75 | inactive |
| ZNF674 (GeneID 641339) | 0.69 | inactive |
| ZNF674 (GeneID 641339) | -0.36 | inactive |
| ZNF674 (GeneID 641339) | 0.66 | inactive |
| DEFB103A (GeneID 414325) | -0.88 | inactive |
| DEFB103A (GeneID 414325) | 0.59 | inactive |
| DEFB103A (GeneID 414325) | 0.23 | inactive |
| DEFB103A (GeneID 414325) | 0.42 | inactive |
| MED9 (GeneID 55090) | -0.6 | inactive |
| MED9 (GeneID 55090) | -0.55 | inactive |
| MED9 (GeneID 55090) | -0.31 | inactive |
| MED9 (GeneID 55090) | 0.89 | inactive |
| TAS2R45 (GeneID 259291) | -0.52 | inactive |
| TAS2R45 (GeneID 259291) | -0.37 | inactive |
| TAS2R45 (GeneID 259291) | -0.89 | inactive |
| STAT6 (GeneID 6778) | 1.19 | inactive |
| STAT6 (GeneID 6778) | 1.14 | inactive |
| STAT6 (GeneID 6778) | 1.06 | inactive |
| STAT6 (GeneID 6778) | 0.58 | inactive |
| SMOX (GeneID 54498) | 1.56 | inactive |
| SMOX (GeneID 54498) | 1.51 | inactive |
| SMOX (GeneID 54498) | -0.41 | inactive |
| SMOX (GeneID 54498) | 1.81 | inactive |
| SYN1 (GeneID 6853) | 0.18 | inactive |
| SYN1 (GeneID 6853) | 0.79 | inactive |
| SYN1 (GeneID 6853) | -0.77 | inactive |
| SYN1 (GeneID 6853) | 1.59 | inactive |
| IGBP1 (GeneID 3476) | -0.98 | inactive |
| IGBP1 (GeneID 3476) | -0.89 | inactive |
| IGBP1 (GeneID 3476) | 0.96 | inactive |
| IGBP1 (GeneID 3476) | -0.1 | inactive |
| DLD (GeneID 1738) | -0.09 | inactive |
| DLD (GeneID 1738) | 0.11 | inactive |
| DLD (GeneID 1738) | -1.52 | active |
| DLD (GeneID 1738) | -1.64 | active |
| FUT9 (GeneID 10690) | -1.28 | inactive |
| FUT9 (GeneID 10690) | -0.28 | inactive |
| FUT9 (GeneID 10690) | 0.73 | inactive |
| FUT9 (GeneID 10690) | 3.59 | active |
| EMILIN1 (GeneID 11117) | -0.79 | inactive |
| EMILIN1 (GeneID 11117) | -0.89 | inactive |
| EMILIN1 (GeneID 11117) | -0.8 | inactive |
| EMILIN1 (GeneID 11117) | -0.92 | inactive |
| DDX60 (GeneID 55601) | -0.7 | inactive |
| DDX60 (GeneID 55601) | 0.15 | inactive |
| DDX60 (GeneID 55601) | -0.61 | inactive |
| DDX60 (GeneID 55601) | 0.3 | inactive |
| COA6 (GeneID 388753) | 1.45 | inactive |
| COA6 (GeneID 388753) | 1.86 | inactive |
| COA6 (GeneID 388753) | 0.84 | inactive |
| COA6 (GeneID 388753) | 1.47 | inactive |
| OAF (GeneID 220323) | 0.05 | inactive |
| OAF (GeneID 220323) | -0.13 | inactive |
| OAF (GeneID 220323) | -0.47 | inactive |
| OAF (GeneID 220323) | 0.13 | inactive |
| FLAD1 (GeneID 80308) | 1.05 | inactive |
| FLAD1 (GeneID 80308) | 0.69 | inactive |
| FLAD1 (GeneID 80308) | 1.02 | inactive |
| FLAD1 (GeneID 80308) | 1.49 | inactive |

Hits, among the entries above:
| gene symbol | TNF reporter robust z-score | Call |
| --- | --- | --- |
| DLD (GeneID 1738) | -1.52 | active |
| DLD (GeneID 1738) | -1.64 | active |
| FUT9 (GeneID 10690) | 3.59 | active |
